No constants are given. Whether binding was seen depends on the method and setting. Some results given as binding are weak or reduced against the parent protein; the word gives no strength.
B1: 137-4 (antibody, IgG1, V domains shown, not shown: large carriers)
VH: QVQLVQSGAEVKKPGSSVKVSCKASGYSFTGYYIHWVRQAPGQGLEWMGRINPYNGATTYNQNFKDRVTITVDKSTSTAYMELSSLRSEDTAVYYCARFHYGAVDYWGQGTLVTVSS
VL: DIQMTQSPSSLSASVGDRVTITCKASQDINTYLTWYQQKPGKAPKTLIYRANILVDGVPSRFSGSGSGTDFTLTISSLQPEDFATYYCLQYEEFPLTFGGGTKVEIKR
B2: 137-7 (antibody, IgG1, V domains shown, not shown: large carriers)
VH: QVQLVQSGAEVKKPGSSVKVSCKASGYSFTGYYIHWVRQAPGQGLEWMGRINPYNGATTYNQNFKDRVTITVDKSTSTAYMELSSLRSEDTAVYYCARFHYGAPNYWGQGTLVTVSS
VL: DIQMTQSPSSLSASVGDRVTITCKASQDINTYLTWYQQKPGKAPKTLIYRANILVDGVPSRFSGSGSGTDFTLTISSLQPEDFATYYCLQYDDFPLTFGGGTKVEIKR
B3: 137-9 (antibody, IgG1, V domains shown, not shown: large carriers)
VH: QVQLVQSGAEVKKPGSSVKVSCKASGYSFTGYYIHWVRQAPGQGLEWMGRINPYNGATTYNQNFKDRVTITVDKSTSTAYMELSSLRSEDTAVYYCARFHYGAPDLWGQGTLVTVSS
VL: DIQMTQSPSSLSASVGDRVTITCKASQDINTYLTWYQQKPGKAPKTLIYRANILVDGVPSRFSGSGSGTDFTLTISSLQPEDFATYYCLQYDAFPLTFGGGTKVEIKR
B4: 137-6 (antibody, IgG1, V domains shown, not shown: large carriers)
VH: QVQLVQSGAEVKKPGSSVKVSCKASGYSFTGYYIHWVRQAPGQGLEWMGRINPYNGATTYNQNFKDRVTITVDKSTSTAYMELSSLRSEDTAVYYCARFHYGAPEYWGQGTLVTVSS
VL: DIQMTQSPSSLSASVGDRVTITCKASQDINTYLTWYQQKPGKAPKTLIYRANILVDGVPSRFSGSGSGTDFTLTISSLQPEDFATYYCLQYAEFPLTFGGGTKVEIKR
B5: 137-8 (antibody, IgG1, V domains shown, not shown: large carriers)
VH: QVQLVQSGAEVKKPGSSVKVSCKASGYSFTGYYIHWVRQAPGQGLEWMGRINPYNGATTYNQNFKDRVTITVDKSTSTAYMELSSLRSEDTAVYYCARFHYGAPDFWGQGTLVTVSS
VL: DIQMTQSPSSLSASVGDRVTITCKASQDINTYLTWYQQKPGKAPKTLIYRANILVDGVPSRFSGSGSGTDFTLTISSLQPEDFATYYCLQYDQFPLTFGGGTKVEIKR
B6: 137-5 (antibody, IgG1, V domains shown, not shown: large carriers)
VH: QVQLVQSGAEVKKPGSSVKVSCKASGYSFTGYYIHWVRQAPGQGLEWMGRINPYNGATTYNQNFKDRVTITVDKSTSTAYMELSSLRSEDTAVYYCARFHYGAADYWGQGTLVTVSS
VL: DIQMTQSPSSLSASVGDRVTITCKASQDINTYLTWYQQKPGKAPKTLIYRANILVDGVPSRFSGSGSGTDFTLTISSLQPEDFATYYCLQYNEFPLTFGGGTKVEIKR

The binders below were run against CHOK1-cynoCD73细胞上的猴CD73 (monkey (猴; cyno)) (assay: flow cytometry on CHOK1-cynoCD73 cells, Anti-hFC-APC).

binding, binds:
B1, B2, B3, B4, B5, B6

— patent CN113045659A
